According to publication PMC4895392:
No constants are given. Whether binding was seen depends on the method and setting. In cells and extracts the contact can be indirect. Some entries that bind do so weakly or less than the wild type.

By UniProt entry, the sequences of proteins in these tests, tags left out. Residues count along the entry.
UniProt P35968, residues 20-1356: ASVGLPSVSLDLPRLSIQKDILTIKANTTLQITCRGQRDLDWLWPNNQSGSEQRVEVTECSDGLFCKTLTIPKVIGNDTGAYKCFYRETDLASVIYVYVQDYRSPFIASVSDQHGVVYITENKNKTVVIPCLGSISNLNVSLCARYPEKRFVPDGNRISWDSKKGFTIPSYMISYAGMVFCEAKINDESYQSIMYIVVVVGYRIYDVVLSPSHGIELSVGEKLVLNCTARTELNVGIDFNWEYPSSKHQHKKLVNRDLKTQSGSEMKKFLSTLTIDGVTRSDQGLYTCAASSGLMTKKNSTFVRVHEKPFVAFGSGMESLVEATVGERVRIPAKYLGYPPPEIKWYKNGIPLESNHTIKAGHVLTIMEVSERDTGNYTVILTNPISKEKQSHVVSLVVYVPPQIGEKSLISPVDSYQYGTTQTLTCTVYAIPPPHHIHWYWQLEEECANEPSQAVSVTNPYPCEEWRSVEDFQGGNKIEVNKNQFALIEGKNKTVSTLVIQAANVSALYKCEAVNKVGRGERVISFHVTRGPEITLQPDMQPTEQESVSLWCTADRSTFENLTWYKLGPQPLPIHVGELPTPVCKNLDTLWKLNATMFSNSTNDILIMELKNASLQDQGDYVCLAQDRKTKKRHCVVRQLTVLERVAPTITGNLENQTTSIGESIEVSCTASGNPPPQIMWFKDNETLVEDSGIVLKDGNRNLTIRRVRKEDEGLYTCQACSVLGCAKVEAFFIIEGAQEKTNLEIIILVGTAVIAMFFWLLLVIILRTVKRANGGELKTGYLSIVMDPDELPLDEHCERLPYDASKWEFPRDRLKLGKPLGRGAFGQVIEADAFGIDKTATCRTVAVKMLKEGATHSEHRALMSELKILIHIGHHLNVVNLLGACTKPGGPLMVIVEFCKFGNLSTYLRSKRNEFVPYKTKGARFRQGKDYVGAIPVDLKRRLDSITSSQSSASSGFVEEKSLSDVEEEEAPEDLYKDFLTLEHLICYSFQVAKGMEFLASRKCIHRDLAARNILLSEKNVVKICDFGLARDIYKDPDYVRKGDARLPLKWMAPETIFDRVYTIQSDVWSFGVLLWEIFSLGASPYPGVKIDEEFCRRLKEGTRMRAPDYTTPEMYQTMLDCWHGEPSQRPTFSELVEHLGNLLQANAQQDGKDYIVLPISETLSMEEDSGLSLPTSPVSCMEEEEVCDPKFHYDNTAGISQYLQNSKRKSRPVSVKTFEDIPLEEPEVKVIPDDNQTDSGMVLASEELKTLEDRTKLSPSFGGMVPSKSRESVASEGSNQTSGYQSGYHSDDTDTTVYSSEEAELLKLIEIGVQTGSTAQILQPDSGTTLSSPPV
UniProt Q2M1Z3: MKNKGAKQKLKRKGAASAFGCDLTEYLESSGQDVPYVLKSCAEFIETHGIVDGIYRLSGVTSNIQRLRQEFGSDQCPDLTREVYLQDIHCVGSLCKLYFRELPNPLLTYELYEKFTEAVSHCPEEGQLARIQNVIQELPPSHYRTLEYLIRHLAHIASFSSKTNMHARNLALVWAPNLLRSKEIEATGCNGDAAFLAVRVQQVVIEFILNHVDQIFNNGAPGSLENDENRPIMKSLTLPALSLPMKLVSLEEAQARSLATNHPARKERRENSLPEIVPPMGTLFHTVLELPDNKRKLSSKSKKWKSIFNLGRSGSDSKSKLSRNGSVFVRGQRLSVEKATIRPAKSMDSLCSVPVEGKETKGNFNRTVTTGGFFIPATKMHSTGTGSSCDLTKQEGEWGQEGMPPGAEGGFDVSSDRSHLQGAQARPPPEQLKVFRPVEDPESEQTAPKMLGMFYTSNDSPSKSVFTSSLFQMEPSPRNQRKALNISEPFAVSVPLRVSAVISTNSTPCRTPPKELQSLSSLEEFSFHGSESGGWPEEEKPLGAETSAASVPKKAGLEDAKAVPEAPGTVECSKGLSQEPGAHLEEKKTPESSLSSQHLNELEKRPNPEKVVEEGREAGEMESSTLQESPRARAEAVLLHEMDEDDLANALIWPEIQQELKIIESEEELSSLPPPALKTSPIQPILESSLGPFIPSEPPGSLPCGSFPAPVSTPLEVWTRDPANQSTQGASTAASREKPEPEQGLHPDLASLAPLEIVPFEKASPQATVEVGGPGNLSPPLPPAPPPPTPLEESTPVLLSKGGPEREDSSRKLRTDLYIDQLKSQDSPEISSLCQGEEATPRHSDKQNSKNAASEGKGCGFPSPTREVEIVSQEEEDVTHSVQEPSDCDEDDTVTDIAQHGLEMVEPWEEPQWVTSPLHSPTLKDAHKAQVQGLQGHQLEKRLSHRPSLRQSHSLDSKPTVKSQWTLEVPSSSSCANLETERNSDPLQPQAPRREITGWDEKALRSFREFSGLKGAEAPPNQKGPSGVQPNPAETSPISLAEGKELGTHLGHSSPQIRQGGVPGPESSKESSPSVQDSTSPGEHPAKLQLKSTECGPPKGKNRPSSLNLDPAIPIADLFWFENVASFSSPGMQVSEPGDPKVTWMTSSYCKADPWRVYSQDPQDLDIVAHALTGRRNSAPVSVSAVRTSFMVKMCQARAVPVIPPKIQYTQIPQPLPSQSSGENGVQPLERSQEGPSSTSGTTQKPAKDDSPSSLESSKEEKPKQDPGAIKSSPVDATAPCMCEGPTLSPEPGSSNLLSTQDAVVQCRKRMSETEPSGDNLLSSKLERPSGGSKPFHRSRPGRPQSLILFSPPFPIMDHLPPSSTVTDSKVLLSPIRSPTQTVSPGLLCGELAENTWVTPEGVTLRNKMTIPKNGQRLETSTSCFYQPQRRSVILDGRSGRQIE

Molecular target: VEGF receptor-2 (VEGFR2, Flk-1) (human (endogenous in HUVEC)) (UniProt P35968)
Assay: co-IP; VEGFR2 immunoprecipitated from HUVEC lysates (1 mg) O/N at 4 °C with 4 μg anti-FLK-1 rabbit antibody and Protein A-Sepharose; cells unstimulated or stimulated with VEGF (50 ng/ml) for 10 or 20 min; lysis buffer 50 mM HEPES pH 7.5, 0.5% Nonidet P-40, 0.5% Triton X-100, 150 mM NaCl; immunoblot for CdGAP; rabbit IgG as control

binding: binds
Substance: CdGAP (Cdc42 GTPase-activating protein)/ARHGAP31 (from UniProt Q2M1Z3 1-1444)
